# Where “and” joins values, the source holds several entries; their conditions need not be identical. Equal values may be shown once. Among all 320,000 compounds or so, about 22,000 (6.9%) were called active. The shares of active, inactive and inconclusive entries below differ from those in the screen. The call rests on the fitted dose curve; in most records, active means well fitted inhibition curve with a large enough effect; inconclusive means small, poorly fitted or top-dose-only effect, or another doubt; inactive means no such curve, though single readings can be large or run the other way. Potencies beside an inconclusive call are fits to weak or partial responses and may not hold up.
# Experiment: Primary qHTS for delayed death inhibitors of the malarial parasite plastid, 96 hour incubation
# Conditions: P. falciparum luciferase reporter growth; series mostly up to 28.7 µM; activity change, negative = inhibition: at the top concentration
# Outline: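 Two-generation exposure (96 h) targets delayed-death phenotype. Reporter parasites carrying integrated firefly luciferase, in red cells at 2% hematocrit and 0.05% parasitemia final, kept at 37 C, 5% CO2; luminescence loss indicates inhibition.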
# On the % scale 0 is the no-effect control and ±100 the full control effect; potency means the concentration at half of the fitted maximal effect.
SMILES,"activity change, negative = inhibition",Potency
Cc1ccccc1C(=O)N1CCC(C(=O)NCCc2ccc(S(N)(=O)=O)cc2)CC1,inactive: -2.6%,–
O=C(O)CSc1nnc(-c2ccc(Cl)cc2)n1-c1ccccc1,–,active: 9.28 µM
Cc1oc2c(C)c3oc(=O)c(CCC(=O)NCCN4CCOCC4)c(C)c3cc2c1C,–,"inconclusive: 14.7 µM [inhibitor, partial curve, poor fit]"
C/C(=N\N=C(N)N)c1ccc(Cl)cc1,–,active: 4.15 µM
CCOC(=O)c1cc(S(=O)(=O)NCc2ccc3c(c2)OCO3)cn1C,–,"inconclusive: 2.33 µM [inhibitor, partial curve]"
COc1ccc(CNC(=O)/C(C)=C\C(=O)O)cc1,–,"inconclusive: 18.5 µM [inhibitor, single point]"
Cn1cccc1/C=C1/C(=O)NC(=O)N(Cc2ccc(F)cc2)C1=O,inactive: 5.75%,–
O=C(Nc1ccccc1Cl)c1cccs1,–,"inconclusive: 18.5 µM [inhibitor, single point]"
COc1ccc(CCNc2nc(C)nc3c2nnn3Cc2ccccc2)cc1OC,inactive: -29.1%,–
Cc1cccc(NC(=O)c2c(F)c(F)c(F)c(F)c2F)c1,–,"inconclusive: 4.65 µM [inhibitor, partial curve]"
Cn1c(-c2ccccc2)c(/C=N/NC(=O)c2ccc(O)cc2)c2ccccc21,–,"inconclusive: 9.28 µM [inhibitor, partial curve, poor fit]"
CC(=O)Nc1sc2c(c1C(c1ccc(Cl)cc1)N1CCOCC1)CCCC2 (configuration not stated),–,active: 1.31 µM
CCCCc1nc(N2CCN(C(=O)c3ccco3)CC2)c(C#N)c2c1CCCC2,–,"inconclusive: 11.7 µM [inhibitor, single point]"
O=C1c2ccccc2C(=O)N1CCCc1nc(-c2ccc(Cl)cc2)no1,–,"inconclusive: 18.5 µM [inhibitor, single point]"
COc1cc(C(=O)Nc2cc3c4c(c2)CC(=O)N4CCC3)cc(OC)c1OC,inactive: -17.8%,–
O=C(Cn1cncn1)NCCCc1ccccc1,–,"inconclusive: 0.657 µM [inhibitor, full curve]"
Cc1cccc(NC(=S)NN2CCOCC2)c1C,–,"inconclusive: 11.7 µM [inhibitor, single point]"
CCCNC(=O)c1ccc(N2CCC3(CC2)CC(c2cccc(Br)c2)=NO3)c(N)c1,–,"inconclusive: 18.5 µM [inhibitor, single point]"
COc1ccc(C2NC(=O)NC(C)=C2C(=O)OC2CCC(C)CC2)cc1 (configuration not stated),–,"inconclusive: 18.5 µM [inhibitor, single point]"
Cn1c(N)c(C(=O)N/N=C/c2ccccc2)sc1=S,inactive: -5.39%,–
O=C(Nc1ccc2c(c1)OCCO2)c1ccc(S(=O)(=O)N2CCCCC2)cc1,inactive: -8.96%,–
CCCN1CCC(=O)N(CCO)CC1,inactive: 0.714%,–
O=C(Nc1ccc(CN2CCOCC2)cc1)c1ccc(F)cc1,inactive: 107%,–

# Looked up by structure from above (two):
SMILES,"activity change, negative = inhibition",Potency
CCCN1CCC(=O)N(CCO)CC1,inactive: 0.714%,–
C/C(=N\N=C(N)N)c1ccc(Cl)cc1,–,active: 4.15 µM

# More records:

SMILES,"activity change, negative = inhibition",Potency
CCN(C(=O)COC(=O)CNC(=O)c1ccc(C)s1)c1ccccc1,inactive: 10.5%,–
CC/C(O)=C1\C(=O)CC(C)(C)CC1=Nc1ccccc1C,–,"inconclusive: 14.7 µM [inhibitor, partial curve, poor fit]"
COc1ccccc1C(=O)Nc1ccnn1C1CCN(CC2CC=CCC2)CC1 (configuration not stated),–,"inconclusive: 10.4 µM [inhibitor, single point]"
CC(NC(=O)c1cc(=O)[nH]c2ccc(Br)cc12)c1ccccc1 (configuration not stated),–,"inconclusive: 5.22 µM [inhibitor, single point]"
C/C(=N\NC(=O)CNC(=O)C1COc2ccccc2O1)c1ccc(Cl)cc1 (configuration not stated),–,"inconclusive: 18.5 µM [inhibitor, single point]"
Cc1ccc(-c2nnc(SCc3nc4ccccc4[nH]3)n2Cc2ccco2)cc1,–,"inconclusive: 18.5 µM [inhibitor, single point]"
Cc1ccc(C(=O)COC(=O)c2ccccc2NC(=O)c2ccccc2)cc1[N+](=O)[O-],inactive: 101%,–
CC1=NN(C(N)=S)C(=O)C1N=Nc1ccc(Cl)cc1Cl (configuration not stated),–,"inconclusive: 18.5 µM [inhibitor, single point]"
S=c1nc[nH]c2nc[nH]c12,–,"inconclusive: 9.28 µM [inhibitor, partial curve, poor fit]"
Cc1nc(N2CCCCC2)c2c(C)c(C(=O)Nc3ccccc3C(F)(F)F)sc2n1,–,"inconclusive: 18.5 µM [inhibitor, single point]"
CCOC(=O)c1[nH]c2ccc(C)cc2c1NC(=O)CN1CCCCC1,inactive: 35.1%,–
O=C(Nc1cc(N2CCCCC2)ncn1)c1ccc(F)cc1,–,"inconclusive: 0.0037 µM [inhibitor, partial curve, poor fit]"
CNc1oc(-c2ccccc2)nc1S(=O)(=O)c1ccc(C)cc1,–,"inconclusive: 10.4 µM [inhibitor, single point]"
CN1CCSc2ccc(C(=O)Nc3cccc(F)c3)cc21,inactive: 0%,–
O=C1OCCC1Sc1nnc(-c2ccccc2)o1 (configuration not stated),inactive: 318%,–
Cc1csc(SCC(=O)NC(=O)NC(C)(C)C)n1,–,"inconclusive: 18.5 µM [inhibitor, single point]"
O=C(COc1ccccc1)NN1C(=O)CSC1=S,–,"inconclusive: 0.0026 µM [inhibitor, full curve, poor fit]"
Cc1cc(C)c(S(=O)(=O)c2ccccc2F)c(=O)[nH]1,inactive: -14.2%,–
O=c1c2ccccc2nc(Cc2ccccc2)n1-c1ccccc1O,–,"inconclusive: 11.7 µM [inhibitor, partial curve, poor fit]"
O=C(N/N=C/c1ccc([N+](=O)[O-])o1)c1ccc2c(c1)OCO2,–,"inconclusive: 10.4 µM [inhibitor, single point]"
Cc1ccc(S(=O)(=O)N(C)CC(=O)NCCCc2ccccc2)cc1,–,"inconclusive: 3.7 µM [inhibitor, partial curve, poor fit]"
O=C(Cn1cnc2c(nnn2Cc2ccc(F)cc2)c1=O)Nc1ccccc1,inactive: 10.7%,–
CCN1CCc2c(sc(NC(=O)c3ccc(S(=O)(=O)N4CCOCC4)cc3)c2C(N)=O)C1,–,"inconclusive: 18.5 µM [inhibitor, single point]"

# A different layout for 2 compounds above.
SMILES | activity change, negative = inhibition | Potency
COc1ccc(CNC(=O)/C(C)=C\C(=O)O)cc1 | – | inconclusive: 18.5 µM [inhibitor, single point]
Cn1cccc1/C=C1/C(=O)NC(=O)N(Cc2ccc(F)cc2)C1=O | inactive: 5.75% | –

# From PubChem BioAssay AID504834 (National Center for Advancing Translational Sciences (NCATS), 2011)
